The source of these data is paper PMC7819943, “Rice protein-binding microarrays: a tool to detect cis-acting elements near promoter regions in rice”.

The other results are listed elsewhere or left out.

The assay addresses T1, OsSMF1 (Oryza sativa, UniProt Q6ZLB0 1-436).
T1 sequence: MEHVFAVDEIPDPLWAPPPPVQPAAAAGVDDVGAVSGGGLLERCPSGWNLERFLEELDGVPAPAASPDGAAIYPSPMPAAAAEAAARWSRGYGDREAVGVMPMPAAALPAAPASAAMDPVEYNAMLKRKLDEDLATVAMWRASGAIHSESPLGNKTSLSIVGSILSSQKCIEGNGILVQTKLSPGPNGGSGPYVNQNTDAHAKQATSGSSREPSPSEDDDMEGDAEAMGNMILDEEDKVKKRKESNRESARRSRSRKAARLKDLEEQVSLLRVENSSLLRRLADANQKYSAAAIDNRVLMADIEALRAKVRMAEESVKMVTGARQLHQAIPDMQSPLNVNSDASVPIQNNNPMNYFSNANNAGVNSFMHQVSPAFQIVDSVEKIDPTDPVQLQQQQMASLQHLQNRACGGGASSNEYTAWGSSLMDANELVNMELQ
As to the kind of experiment: protein-binding microarray (RPBM); PBS, 2% BSA, 51.3 ng/ul salmon testes DNA, 50 uM zinc acetate, 200 nM TF, 25 C, 1 h; high values mean tight binding. The following applies: protein: recombinant; tags: N-terminal polyhistidine and DsRed monomer fusion (pET32a); chain copies: 2; label: CyDye5-dUTP incorporated in the synthesized complementary strand; 3' TTTTT single-stranded linker to array surface; dsDNA, one strand shown. In outline:
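Binding signal is reported as fluorescence intensity per feature (arbitrary units) from an Axon 4000B scanner. Incubation used 200 nM of each Ni–NTA-purified, N-terminally polyhistidine- and DsRed-fused transcription factor from E. coli BL21-CodonPlus on a double-stranded custom Agilent array for 1 h at 25 °C, with 50 µM zinc acetate in the buffer, followed by washing.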
With “TTTGTAGGAGCTTCATCCCACGTGGCACTCCAGGCTGAGCCGGAGTCACCTAGTGCAG”, the binding signal was 24200 fluorescence intensity (a.u.).

In the case of “ATAGTACTAGAATACGTCTCATCCACTCAAAATTCCTTATCGGAGTCACCTAGTGCAG”, the binding signal was 28000 fluorescence intensity (a.u.).

For the sequence “TTAGCGTCAAATCATTGATCAATTAGGCTTAAAAGATTCGCGGAGTCACCTAGTGCAG”, the binding signal is 31800 fluorescence intensity (a.u.).

As to “TATGTAATATATCACGTCACATATATGTAAGTTCATATTCCGGAGTCACCTAGTGCAG”, the binding signal is 4910 fluorescence intensity (a.u.).

With “ACCGTGCAACGCCTCGCTAGCTGGCGTGGGCCCCACCTAACGGAGTCACCTAGTGCAG”, the binding signal is 3820 fluorescence intensity (a.u.).

For the sequence “AGTTACCGTTCTAGTCAGGGGCGGATCCAGCGTGGGGCGGCGGAGTCACCTAGTGCAG”, the binding signal was 3290 fluorescence intensity (a.u.).

Turning to “TGATCAAAGGGTTTTACTAAAGGAGTTATGGTCTAATTTTCGGAGTCACCTAGTGCAG”, the binding signal is 64900 fluorescence intensity (a.u.).

As for “AGCCACATTGTTGGTCGCCCATCCTGCATCACCTGGATCCCGGAGTCACCTAGTGCAG”, the binding signal is 3220 fluorescence intensity (a.u.).

In the case of “AGCCGGAGGCCAAGGGGCGTGGACGGTGGAGGGTAATCCGCGGAGTCACCTAGTGCAG”, the binding signal was 3370 fluorescence intensity (a.u.).

In the case of “TTTGCTGAGATATAGTTGCCACGTGAGCGCCACGTCAAGCCGGAGTCACCTAGTGCAG”, the binding signal was 30800 fluorescence intensity (a.u.).

In the case of “TTCTTGCCGATATTTTGGTGCGTCATCCGTGTATGAGTCGCGGAGTCACCTAGTGCAG”, the binding signal is 7280 fluorescence intensity (a.u.).

With “GCCTCACCTTTCACTTCATCCATCTCTACACATCAGCAATCGGAGTCACCTAGTGCAG”, the binding signal was 8490 fluorescence intensity (a.u.).

For the sequence “GGAGGCTTCACTGGTGGCGGGGCCGGAGTCGAGGGGTTCTCGGAGTCACCTAGTGCAG”, the binding signal is 3150 fluorescence intensity (a.u.).

Take “TCATGGCTCTAGTTACTAGTAGTAGATTGCAAATCGATTTCGGAGTCACCTAGTGCAG”: the binding signal was 3170 fluorescence intensity (a.u.).

As to “CCTGGCGGTCTCGGCGGCCACCTGGAGCCGGAAGTGGACGCGGAGTCACCTAGTGCAG”, the binding signal was 36300 fluorescence intensity (a.u.).

Regarding “AAAATGCCACGCCAGCTGACACGTCACCCACAGGCAAGTACGGAGTCACCTAGTGCAG”, the binding signal is 15300 fluorescence intensity (a.u.).

With “CAGGTGGCAGCGTGACGCCAGCTGGCACCGGGGTGTGGGGCGGAGTCACCTAGTGCAG”, the binding signal is 6890 fluorescence intensity (a.u.).

For the sequence “TTCCTTAGCTCATGTCAGCACAGCAACTACCTGTAACCTGCGGAGTCACCTAGTGCAG”, the binding signal is 4240 fluorescence intensity (a.u.).

Take “TATGCATTTTAAGAGTTTAGGGAACTAGATGACACACATCCGGAGTCACCTAGTGCAG”: the binding signal is 3970 fluorescence intensity (a.u.).

For the sequence “TCCCTCCGCCGACGGCTCCCTCCTCTCCCACGTCCGCGCACGGAGTCACCTAGTGCAG”, the binding signal is 3970 fluorescence intensity (a.u.).

In the case of “CGTCTCGCCGGAGCGTTGACGAGGACCTCTCTACTCTTCACGGAGTCACCTAGTGCAG”, the binding signal was 3680 fluorescence intensity (a.u.).

Regarding “TATAGCAAAGAAAAGTAAAATAAGAGGCATGAGCTCACGCCGGAGTCACCTAGTGCAG”, the binding signal was 37800 fluorescence intensity (a.u.).

With “GCGCATTGGCGAGGACTGCGACTATCTGGGAAGCGTGAAGCGGAGTCACCTAGTGCAG”, the binding signal is 51500 fluorescence intensity (a.u.).

As to “TTTCTCCACGTCAGCGAAACCACCTATATATATACTGCCACGGAGTCACCTAGTGCAG”, the binding signal was 14300 fluorescence intensity (a.u.).

Turning to “TTAAATTAGCGTCCAAACATTCGATGTGACATGGACTAAGCGGAGTCACCTAGTGCAG”, the binding signal is 4160 fluorescence intensity (a.u.).

On to “ATATGTACGTTGGATAAGTTTGATGACGTGACATACACATCGGAGTCACCTAGTGCAG”, for which the binding signal is 6160 fluorescence intensity (a.u.).

For the sequence “CGGCCTCGCCGTGGACGTCACCGTCCCCAACGCCGACGTTCGGAGTCACCTAGTGCAG”, the binding signal was 3450 fluorescence intensity (a.u.).

Turning to “GGGGTGGCGGTGGCGGTGGTGGTGGTGGTGGTGGTGGAGTCGGAGTCACCTAGTGCAG”, the binding signal is 6290 fluorescence intensity (a.u.).

As to “ACACGAGGACGCTGGTGACTGGTCACCGGGCCCCACTTTGCGGAGTCACCTAGTGCAG”, the binding signal is 4190 fluorescence intensity (a.u.).

For “ACCAGGGCACGAGACCGTGGTGCCACGTGTCGGCATCGGCCGGAGTCACCTAGTGCAG”, the binding signal is 17900 fluorescence intensity (a.u.).

Take “TCCACACTCATATATACACGTGGCGGTGGTGTGGTGTGGACGGAGTCACCTAGTGCAG”: the binding signal was 29000 fluorescence intensity (a.u.).

Regarding “CGCGTGAATTAGCATTTCTGCGTGCACCAGGCCTAATTTCCGGAGTCACCTAGTGCAG”, the binding signal was 3150 fluorescence intensity (a.u.).

Turning to “GGCAGAAAACGGCTGCCTGCTACGTCACGTACTCGCGTGGCGGAGTCACCTAGTGCAG”, the binding signal was 16300 fluorescence intensity (a.u.).

In the case of “GACGCTCCGGATCAATCCACGTTGGCATGGCTTCCCCGCACGGAGTCACCTAGTGCAG”, the binding signal was 17700 fluorescence intensity (a.u.).

On to “TTTCTACGCAGCACAATTAACTCAACTTAAGCAAAAGCCGCGGAGTCACCTAGTGCAG”, for which the binding signal was 32100 fluorescence intensity (a.u.).

As to “GCTTCAAAGATTCGTCACGCAATTTCCTGGCGAATTGTGTCGGAGTCACCTAGTGCAG”, the binding signal is 4270 fluorescence intensity (a.u.).

For the sequence “ATGTACACCATCAAGTCAGGAGGAGAAATCCCCTTCCACGCGGAGTCACCTAGTGCAG”, the binding signal was 3390 fluorescence intensity (a.u.).

On to “CTCTAATATGCAAGTTCGTGTGACTTACACGTATAGCATCCGGAGTCACCTAGTGCAG”, for which the binding signal was 5020 fluorescence intensity (a.u.).

“CTCTCTCTCTCCTCTCCGCCGGTGACGCCGGCATTTATAGCGGAGTCACCTAGTGCAG”: the binding signal is 4720 fluorescence intensity (a.u.).

“GGTCGATGATGATGATGACGACGACGAGAGGAGGAGAGATCGGAGTCACCTAGTGCAG”: the binding signal is 3820 fluorescence intensity (a.u.).

On to “AAGCAAAAGAGTGGCACCTACGGGCACGGCCATGGCTGTGCGGAGTCACCTAGTGCAG”, for which the binding signal is 3140 fluorescence intensity (a.u.).

“GGGCCCAATGACAGACTTAGTAAGGCCGTGCGTTACCTCGCGGAGTCACCTAGTGCAG”: the binding signal was 35200 fluorescence intensity (a.u.).
